Data: patent publication US20260022160A1 (AFFYXELL THERAPEUTICS, published 2026)
No constants are given. Whether binding was seen depends on the method and setting. Some binding calls cover weakened binding; strength is not graded here.

T1: human CD40L (human, UniProt P29965 113-261, limits assumed)
T1 sequence (looked up): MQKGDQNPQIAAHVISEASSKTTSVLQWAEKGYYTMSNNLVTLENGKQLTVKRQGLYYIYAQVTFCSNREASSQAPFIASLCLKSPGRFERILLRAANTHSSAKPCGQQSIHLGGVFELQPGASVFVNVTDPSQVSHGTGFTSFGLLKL


target: T1, human CD40L; experiment: ELISA, bacterial lysate on plate-bound human CD40L, anti-Myc tag detection

Binder | binding
stefin A protein variant clone 257 (designed binder) MIPGGLSEAKPATPEIQEIVDKVKPQLEEKTGETYGKLEAVQYKTQVVPEYQPQPKAGTNYYIKVRAGDNKYMHLKVFKSLFHFRKPQDREDLVLTGYQVDKNKDDELTGF | binds
stefin A protein variant clone 258 (designed binder) MIPGGLSEAKPATPEIQEIVDKVKPQLEEKTGETYGKLEAVQYKTQVVNDPYFQSFSGTNYYIKVRAGDNKYMHLKVFKSLPYWYREPENEDLVLTGYQVDKNKDDELTGF | binds
stefin A protein variant clone 254 (designed binder) MIPGGLSEAKPATPEIQEIVDKVKPQLEEKTGETYGKLEAVQYKTQVVNWNQIDNPLGTNYYIKVRAGDNKYMHLKVFKSLNKDWEDQIIEDLVLTGYQVDKNKDDELTGF | binds
stefin A protein variant clone 265 (designed binder) MIPGGLSEAKPATPEIQEIVDKVKPQLEEKTGETYGKLEAVQYKTQVVQVHLDNSPLGTNYYIKVRAGDNKYMHLKVFKSLQFGEIIWWEEDLVLTGYQVDKNKDDELTGF | binds
stefin A protein variant clone 259 (designed binder) MIPGGLSEAKPATPEIQEIVDKVKPQLEEKTGETYGKLEAVQYKTQVVHQDDVAWQSGTNYYIKVRAGDNKYMHLKVFKSLEYGWYHLPYEDLVLTGYQVDKNKDDELTGF | binds
stefin A protein variant clone 249 (designed binder) MIPGGLSEAKPATPEIQEIVDKVKPQLEEKTGETYGKLEAVQYKTQVVSWYYPKNVLGTNYYIKVRAGDNKYMHLKVFKSLEDFIAADDDEDLVLTGYQVDKNKDDELTGF | binds
stefin A protein variant clone 260 (designed binder) MIPGGLSEAKPATPEIQEIVDKVKPQLEEKTGETYGKLEAVQYKTQVVKGYFHTVEAGTNYYIKVRAGDNKYMHLKVFKSLTYHFRTDLNEDLVLTGYQVDKNKDDELTGF | binds
stefin A protein variant clone 250 (designed binder) MIPGGLSEAKPATPEIQEIVDKVKPQLEEKTGETYGKLEAVQYKTQVVFLEWHFWEWGTNYYIKVRAGDNKYMHLKVFKSLDSQEFPSHLEDLVLTGYQVDKNKDDELTGF | binds
stefin A protein variant clone 261 (designed binder) MIPGGLSEAKPATPEIQEIVDKVKPQLEEKTGETYGKLEAVQYKTQVVVDQVWSENAGTNYYIKVRAGDNKYMHLKVFKSLPYLWRKHAVEDLVLTGYQVDKNKDDELTGF | binds
stefin A protein variant clone 251 (designed binder) MIPGGLSEAKPATPEIQEIVDKVKPQLEEKTGETYGKLEAVQYKTQVVSWVRGTNQLGTNYYIKVRAGDNKYMHLKVFKSLEPDWPDFLIEDLVLTGYQVDKNKDDELTGF | binds
stefin A protein variant clone 263 (designed binder) MIPGGLSEAKPATPEIQEIVDKVKPQLEEKTGETYGKLEAVQYKTQVVTASLYWNYAGTNYYIKVRAGDNKYMHLKVFKSLFYYRGPQPVEDLVLTGYQVDKNKDDELTGF | binds
stefin A protein variant clone 244 (designed binder) MIPGGLSEAKPATPEIQEIVDKVKPQLEEKTGETYGKLEAVQYKTQVVRENWYGEFAGTNYYIKVRAGDNKYMHLKVFKSLLYIYRHPNYEDLVLTGYQVDKNKDDELTGF | binds
stefin A protein variant clone 252 (designed binder) MIPGGLSEAKPATPEIQEIVDKVKPQLEEKTGETYGKLEAVQYKTQVVWRKLLSWWKGTNYYIKVRAGDNKYMHLKVFKSLILNPKSWNFEDLVLTGYQVDKNKDDELTGF | binds
stefin A protein variant clone 246 (designed binder) MIPGGLSEAKPATPEIQEIVDKVKPQLEEKTGETYGKLEAVQYKTQVVHIPALKVHAGTNYYIKVRAGDNKYMHLKVFKSLPYWYRHDQEEDLVLTGYQVDKNKDDELTGF | binds
stefin A protein variant clone 255 (designed binder) MIPGGLSEAKPATPEIQEIVDKVKPQLEEKTGETYGKLEAVQYKTQVVFWVGLHNQLGTNYYIKVRAGDNKYMHLKVFKSLYYNGDNTQIEDLVLTGYQVDKNKDDELTGF | binds
stefin A protein variant clone 262 (designed binder) MIPGGLSEAKPATPEIQEIVDKVKPQLEEKTGETYGKLEAVQYKTQVVLSSIWQDVAGTNYYIKVRAGDNKYMHLKVFKSLLYQFRKEPVEDLVLTGYQVDKNKDDELTGF | binds
stefin A protein variant clone 256 (designed binder) MIPGGLSEAKPATPEIQEIVDKVKPQLEEKTGETYGKLEAVQYKTQVVFTQPFNEPIGTNYYIKVRAGDNKYMHLKVFKSLYWDDKVGYYEDLVLTGYQVDKNKDDELTGF | binds
stefin A protein variant clone 253 (designed binder) MIPGGLSEAKPATPEIQEIVDKVKPQLEEKTGETYGKLEAVQYKTQVVPKSHQTNEQGTNYYIKVRAGDNKYMHLKVFKSLWNENHFSVWEDLVLTGYQVDKNKDDELTGF | binds
stefin A protein variant clone 248 (designed binder) MIPGGLSEAKPATPEIQEIVDKVKPQLEEKTGETYGKLEAVQYKTQVVYDELYHEKAGTNYYIKVRAGDNKYMHLKVFKSLEYKFRNLEEDLVLTGYQVDKNKDDELTGF | binds
stefin A protein variant clone 247 (designed binder) MIPGGLSEAKPATPEIQEIVDKVKPQLEEKTGETYGKLEAVQYKTQVVHHAYAAVYVGTNYYIKVRAGDNKYMHLKVFKSLPYWYRKYPDEDLVLTGYQVDKNKDDELTGF | binds
stefin A protein variant clone 245 (designed binder) MIPGGLSEAKPATPEIQEIVDKVKPQLEEKTGETYGKLEAVQYKTQVVTALAWNTQAGTNYYIKVRAGDNKYMHLKVFKSLPWLYRQKSDEDLVLTGYQVDKNKDDELTGF | binds
stefin A protein variant clone 264 (designed binder) MIPGGLSEAKPATPEIQEIVDKVKPQLEEKTGETYGKLEAVQYKTQVVSWKQWHNYLGTNYYIKVRAGDNKYMHLKVFKSLYPDGDLILYEDLVLTGYQVDKNKDDELTGF | binds

Second part, the binder after the results:

binding | Binder
binds | stefin A protein variant clone 270 (designed binder) MIPGGLSEAKPATPEIQEIVDKVKPQLEEKTGETYGKLEAVQYKTQVVLDGLYHVNSGTNYYIKVRAGDNKYMHLKVFKSLFYYYRSEPTEDLVLTGYQVDKNKDDELTGF
binds | stefin A protein variant clone 272 (designed binder) MIPGGLSEAKPATPEIQEIVDKVKPQLEEKTGETYGKLEAVQYKTQVVWEDHWNYQYGTNYYIKVRAGDNKYMHLKVFKSLELYSNQIVWEDLVLTGYQVDKNKDDELTGF
binds | stefin A protein variant clone 266 (designed binder) MIPGGLSEAKPATPEIQEIVDKVKPQLEEKTGETYGKLEAVQYKTQVVQNNWYLSNYGTNYYIKVRAGDNKYMHLKVFKSLVEERWGLWVEDLVLTGYQVDKNKDDELTGF
binds | stefin A protein variant clone 278 (designed binder) MIPGGLSEAKPATPEIQEIVDKVKPQLEEKTGETYGKLEAVQYKTQVVKIGQLPSRVGTNYYIKVRAGDNKYMHLKVFKSLYWYRNPADREDLVLTGYQVDKNKDDELTGF
binds | stefin A protein variant clone 274 (designed binder) MIPGGLSEAKPATPEIQEIVDKVKPQLEEKTGETYGKLEAVQYKTQVVRVDWWLPEVGTNYYIKVRAGDNKYMHLKVFKSLPYQYRKDPKEDLVLTGYQVDKNKDDELTGF
binds | stefin A protein variant clone 276 (designed binder) MIPGGLSEAKPATPEIQEIVDKVKPQLEEKTGETYGKLEAVQYKTQVVSLGQAETWAGTNYYIKVRAGDNKYMHLKVFKSLFKYRHQQDKEDLVLTGYQVDKNKDDELTGF
binds | stefin A protein variant clone 275 (designed binder) MIPGGLSEAKPATPEIQEIVDKVKPQLEEKTGETYGKLEAVQYKTQVVSWIEISNQLGTNYYIKVRAGDNKYMHLKVFKSLYYGNTSILIEDLVLTGYQVDKNKDDELTGF
binds | stefin A protein variant clone 267 (designed binder) MIPGGLSEAKPATPEIQEIVDKVKPQLEEKTGETYGKLEAVQYKTQVVWEWALLLEYGTNYYIKVRAGDNKYMHLKVFKSLHHPWQPAKQEDLVLTGYQVDKNKDDELTGF
binds | stefin A protein variant clone 271 (designed binder) MIPGGLSEAKPATPEIQEIVDKVKPQLEEKTGETYGKLEAVQYKTQVVHAPAPVQAIGTNYYIKVRAGDNKYMHLKVFKSLPYWYRPNRPEDLVLTGYQVDKNKDDELTGF
binds | stefin A protein variant clone 268 (designed binder) MIPGGLSEAKPATPEIQEIVDKVKPQLEEKTGETYGKLEAVQYKTQVVGDSYWEYVSGTNYYIKVRAGDNKYMHLKVFKSLPYRWRPDHAEDLVLTGYQVDKNKDDELTGF
binds | stefin A protein variant clone 279 (designed binder) MIPGGLSEAKPATPEIQEIVDKVKPQLEEKTGETYGKLEAVQYKTQVVAWHTKNNSIGTNYYIKVRAGDNKYMHLKVFKSLETKLAHEDIEDLVLTGYQVDKNKDDELTGF
binds | stefin A protein variant clone 269 (designed binder) MIPGGLSEAKPATPEIQEIVDKVKPQLEEKTGETYGKLEAVQYKTQVVGQKWWQHKIGTNYYIKVRAGDNKYMHLKVFKSLHSNAWNLQHEDLVLTGYQVDKNKDDELTGF
binds | stefin A protein variant clone 273 (designed binder) MIPGGLSEAKPATPEIQEIVDKVKPQLEEKTGETYGKLEAVQYKTQVVSWRYKSNQLGTNYYIKVRAGDNKYMHLKVFKSLYKDWVVNPPEDLVLTGYQVDKNKDDELTGF
